The results are deposited in PubChem (AID624287; NCATS, 2012).

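Cells carrying the gsp mutation, with cAMP measured by an HTRF read-out after a 30-minute exposure to each compound. Each compound was run as a dilution series from about 0.61 to 76.9 µM. The number is the AC50, the concentration giving half the maximal cAMP rise; a lower value means a more potent activator. Calls come from the curve class and fit quality, with scores of 40–100 for actives; these rows show partial, single-point or poorly fitted curves and are all called inconclusive.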

Values are in µM. All entries here are filed as inconclusive. These entries are mostly ones the record files as inconclusive; other results of the assay are not listed here. Potencies fitted to partial, single-point or poorly fitting curves are rough. Activity scores are not listed here.

SMILES,potency (µM),curve
COc1cccc2cccc(/C=N/n3cnnc3)c12,50.12,"activator, single point"
COC(=O)Nc1ccc(S(=O)(=O)NNC(=O)c2c(O)c3ccccc3[nH]c2=O)cc1,50.12,"activator, single point"
CCOc1cc(NC(=O)C2CCCO2)c(OCC)cc1NC(C)=O (stereo not drawn),7.943,"activator, single point"
CC(C)(O)C#Cc1ccc(C(=O)N2CCCC(CNS(=O)(=O)c3cccs3)C2)o1 (stereo not drawn),31.62,"activator, partial curve, poor fit"
CCOc1ccc(NC(=O)CN2CCN(CC(=O)Nc3ccc4c(c3)OCCO4)CC2)cc1,7.08,"activator, partial curve, poor fit"
CC(C)c1ccc(-c2c(NCCc3ccccc3)c(=O)c2=O)cc1,7.943,"activator, partial curve"
CC12CCC(=O)C=C1CCC1C2CCC2(C)C1CC[C@]2(O)C(=O)CO (stereo partly drawn),4.467,"activator, partial curve, poor fit"
CCN(CC)S(=O)(=O)c1ccc2c(c1)nc(SCc1nc3ccsc3c(=O)[nH]1)n2CC,1,"activator, full curve, poor fit"
C=CCn1c(C)cc(C(=O)COC(=O)c2ccc(N)c([N+](=O)[O-])c2)c1C,50.12,"activator, single point"
C=C(CN(C)C)C(=O)c1cc(OC)c(OC)cc1OC,31.62,"activator, single point"
CCC1(O)CC2CN(CCc3c([nH]c4ccccc34)C(C(=O)OC)(c3cc4c(cc3OC)N(C=O)C3C(O)(C(=O)OC)C(OC(C)=O)C5(CC)C=CCN6CCC43C65)C2)C1 (stereo not drawn),39.81,"activator, single point"
COc1ccc(C2/C(=C(/O)c3ccccc3)C(=O)C(=O)N2C)cc1OC (stereo not drawn),11.22,"activator, single point"
CCCC(c1nnnn1Cc1ccc(F)cc1)N1CCN(C2CCCCC2)CC1 (stereo not drawn),50.12,"activator, single point"
COc1cc2nc(NC(=O)c3ccccc3)[nH]c(=O)c2cc1OC,5.623,"activator, single point"
CN1CCN(C(=O)COc2ccc(S(=O)(=O)NC3CCCCC3)cc2Cl)CC1,50.12,"activator, single point"
Clc1ccc(OCC#CCN2CCCCCC2)cc1,50.12,"activator, single point"
C/C(=N/NC(=O)c1cccc(N2CCCC2=O)c1)c1ccc(Br)cc1,8.912,"activator, single point"
Cn1c(CNC(=O)CNS(=O)(=O)c2ccc(F)cc2F)cc(=O)n(C)c1=O,50.12,"activator, single point"
O=c1[nH]c2cc([N+](=O)[O-])c([N+](=O)[O-])cc2[nH]c1=O,44.67,"activator, single point"
O=C(Cc1ccccc1)N1CCN(CC2CC=CCC2)CC1 (stereo not drawn),11.22,"activator, single point"
N#Cc1cn(-c2ccccc2)nc1-c1ccc2c(c1)OCCO2,50.12,"activator, single point"
Cc1cc(NC(=O)CSc2nnc(-c3ccccc3)o2)no1,1.995,"activator, partial curve, poor fit"
O=c1[nH]nc(Cc2ccc(-c3ccccc3Cl)o2)c2ccccc12,2.512,"activator, partial curve, poor fit"
COc1ccccc1C1CCN(C(=O)c2ccc(Cl)cc2)CC1,35.48,"activator, partial curve, poor fit"

Repeated from the top, 2 entries:

- COc1cccc2cccc(/C=N/n3cnnc3)c12 : potency 50.12 µM (activator, single point)
- COC(=O)Nc1ccc(S(=O)(=O)NNC(=O)c2c(O)c3ccccc3[nH]c2=O)cc1 : potency 50.12 µM (activator, single point)